Results on 2 substances are retold here after doi:10.1101/336578.

The chains behind the UniProt entries cited, without tags or fusion partners. Where a name states a change or a piece, a line headed by the entry shows the natural chain unless it says otherwise.
UniProt P07149: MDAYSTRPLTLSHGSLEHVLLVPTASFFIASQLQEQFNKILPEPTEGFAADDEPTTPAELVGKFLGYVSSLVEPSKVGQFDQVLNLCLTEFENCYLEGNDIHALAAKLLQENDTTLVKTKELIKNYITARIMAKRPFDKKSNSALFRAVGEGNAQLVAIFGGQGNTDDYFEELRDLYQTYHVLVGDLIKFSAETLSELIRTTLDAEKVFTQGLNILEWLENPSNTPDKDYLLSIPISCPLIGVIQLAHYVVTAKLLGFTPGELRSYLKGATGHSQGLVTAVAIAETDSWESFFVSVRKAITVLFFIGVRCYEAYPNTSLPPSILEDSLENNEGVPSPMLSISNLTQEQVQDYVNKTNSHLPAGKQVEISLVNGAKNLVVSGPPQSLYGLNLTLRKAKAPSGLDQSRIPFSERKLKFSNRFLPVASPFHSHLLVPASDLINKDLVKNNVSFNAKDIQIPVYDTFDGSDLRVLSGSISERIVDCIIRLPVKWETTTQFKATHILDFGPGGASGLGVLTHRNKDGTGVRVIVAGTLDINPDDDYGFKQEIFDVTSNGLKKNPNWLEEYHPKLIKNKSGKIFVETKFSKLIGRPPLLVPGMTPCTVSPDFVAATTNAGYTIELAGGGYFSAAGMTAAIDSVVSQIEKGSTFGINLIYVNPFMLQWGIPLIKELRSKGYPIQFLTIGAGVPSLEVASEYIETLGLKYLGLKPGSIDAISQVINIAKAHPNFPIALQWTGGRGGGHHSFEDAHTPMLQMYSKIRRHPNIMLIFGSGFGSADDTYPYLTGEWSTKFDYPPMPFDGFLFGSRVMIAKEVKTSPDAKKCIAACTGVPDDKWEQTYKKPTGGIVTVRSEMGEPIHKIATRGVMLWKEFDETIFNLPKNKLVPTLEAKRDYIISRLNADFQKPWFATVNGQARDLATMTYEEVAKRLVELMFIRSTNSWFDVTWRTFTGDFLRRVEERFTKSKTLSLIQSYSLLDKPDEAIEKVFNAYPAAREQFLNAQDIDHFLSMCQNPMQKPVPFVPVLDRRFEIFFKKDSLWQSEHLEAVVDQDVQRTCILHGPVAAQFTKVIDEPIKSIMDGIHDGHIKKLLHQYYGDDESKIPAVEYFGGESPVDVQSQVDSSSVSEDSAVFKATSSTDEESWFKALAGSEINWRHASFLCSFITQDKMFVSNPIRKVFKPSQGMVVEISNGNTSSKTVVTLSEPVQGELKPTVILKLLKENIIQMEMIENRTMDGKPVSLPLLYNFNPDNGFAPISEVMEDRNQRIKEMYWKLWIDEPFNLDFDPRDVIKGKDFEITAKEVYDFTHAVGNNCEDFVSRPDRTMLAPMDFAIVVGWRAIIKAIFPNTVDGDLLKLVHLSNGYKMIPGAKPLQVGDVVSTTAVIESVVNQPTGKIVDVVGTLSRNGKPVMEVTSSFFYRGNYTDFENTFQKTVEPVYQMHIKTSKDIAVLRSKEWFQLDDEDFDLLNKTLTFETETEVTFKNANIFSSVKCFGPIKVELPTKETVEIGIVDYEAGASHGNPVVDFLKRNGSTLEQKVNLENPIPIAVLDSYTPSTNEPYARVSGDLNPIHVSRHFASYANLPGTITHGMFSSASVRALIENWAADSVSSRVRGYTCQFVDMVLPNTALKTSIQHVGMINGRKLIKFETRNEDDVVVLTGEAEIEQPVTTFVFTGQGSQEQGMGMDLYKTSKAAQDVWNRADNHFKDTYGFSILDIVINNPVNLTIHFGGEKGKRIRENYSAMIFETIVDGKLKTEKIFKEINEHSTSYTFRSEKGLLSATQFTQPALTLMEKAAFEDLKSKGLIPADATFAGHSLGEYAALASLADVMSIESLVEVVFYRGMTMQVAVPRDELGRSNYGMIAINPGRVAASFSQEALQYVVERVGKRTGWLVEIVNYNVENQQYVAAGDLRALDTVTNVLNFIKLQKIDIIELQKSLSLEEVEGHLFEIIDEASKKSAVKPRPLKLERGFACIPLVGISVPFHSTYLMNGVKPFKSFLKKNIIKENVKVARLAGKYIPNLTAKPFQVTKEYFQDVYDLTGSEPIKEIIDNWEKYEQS
UniProt P19097: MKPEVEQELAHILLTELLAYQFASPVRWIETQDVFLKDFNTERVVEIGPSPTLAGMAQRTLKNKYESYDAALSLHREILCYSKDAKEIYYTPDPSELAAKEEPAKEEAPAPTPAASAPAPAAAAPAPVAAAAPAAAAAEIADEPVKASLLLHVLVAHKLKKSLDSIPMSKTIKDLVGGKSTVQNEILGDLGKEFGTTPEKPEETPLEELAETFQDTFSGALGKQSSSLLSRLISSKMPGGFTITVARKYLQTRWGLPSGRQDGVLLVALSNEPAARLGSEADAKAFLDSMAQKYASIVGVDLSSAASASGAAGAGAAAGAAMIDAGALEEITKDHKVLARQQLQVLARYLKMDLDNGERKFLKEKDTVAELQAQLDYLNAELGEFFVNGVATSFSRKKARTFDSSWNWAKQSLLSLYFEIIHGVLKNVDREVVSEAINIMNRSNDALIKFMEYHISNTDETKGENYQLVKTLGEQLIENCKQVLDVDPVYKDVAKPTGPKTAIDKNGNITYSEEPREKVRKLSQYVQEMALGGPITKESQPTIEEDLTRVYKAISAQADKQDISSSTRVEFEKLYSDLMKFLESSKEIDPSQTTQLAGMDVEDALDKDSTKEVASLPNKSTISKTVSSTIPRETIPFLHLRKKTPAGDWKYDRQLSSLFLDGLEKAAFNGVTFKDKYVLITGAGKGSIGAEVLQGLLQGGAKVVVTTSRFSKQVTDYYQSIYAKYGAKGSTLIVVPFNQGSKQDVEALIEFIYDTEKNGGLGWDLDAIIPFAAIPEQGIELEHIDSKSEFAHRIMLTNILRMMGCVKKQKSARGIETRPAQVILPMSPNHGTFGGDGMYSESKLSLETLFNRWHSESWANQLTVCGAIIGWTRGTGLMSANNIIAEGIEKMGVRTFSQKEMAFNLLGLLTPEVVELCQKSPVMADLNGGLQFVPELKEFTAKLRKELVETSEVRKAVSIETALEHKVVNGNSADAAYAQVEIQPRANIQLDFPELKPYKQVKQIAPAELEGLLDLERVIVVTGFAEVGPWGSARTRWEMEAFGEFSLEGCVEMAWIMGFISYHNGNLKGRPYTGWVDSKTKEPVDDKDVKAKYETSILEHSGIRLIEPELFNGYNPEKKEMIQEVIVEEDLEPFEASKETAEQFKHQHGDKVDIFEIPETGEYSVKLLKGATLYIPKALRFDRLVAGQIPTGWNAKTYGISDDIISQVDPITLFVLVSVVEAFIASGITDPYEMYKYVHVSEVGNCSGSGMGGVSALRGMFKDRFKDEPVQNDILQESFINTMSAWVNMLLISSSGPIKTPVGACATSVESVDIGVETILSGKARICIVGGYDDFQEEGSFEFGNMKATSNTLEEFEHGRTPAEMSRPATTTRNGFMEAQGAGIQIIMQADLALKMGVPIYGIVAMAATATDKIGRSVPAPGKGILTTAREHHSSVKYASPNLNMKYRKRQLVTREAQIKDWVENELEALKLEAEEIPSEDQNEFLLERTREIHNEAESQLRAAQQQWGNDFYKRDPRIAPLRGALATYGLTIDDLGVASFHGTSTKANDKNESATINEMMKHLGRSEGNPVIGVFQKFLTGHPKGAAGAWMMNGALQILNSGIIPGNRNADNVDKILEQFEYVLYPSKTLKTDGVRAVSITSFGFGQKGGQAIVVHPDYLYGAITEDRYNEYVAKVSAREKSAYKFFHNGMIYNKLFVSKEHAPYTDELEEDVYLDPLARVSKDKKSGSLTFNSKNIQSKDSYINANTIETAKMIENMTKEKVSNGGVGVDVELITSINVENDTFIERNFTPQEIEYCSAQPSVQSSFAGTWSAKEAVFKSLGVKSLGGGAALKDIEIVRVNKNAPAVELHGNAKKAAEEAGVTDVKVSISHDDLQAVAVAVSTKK

No constants are given. Whether binding was seen depends on the method and setting. Some entries that bind do so weakly or less than the wild type.

The target in the assay is S. cerevisiae FAS β-chain, wildtype (FAS1-encoded polypeptide) (S. cerevisiae) (UniProt P07149). Nature of the assay: native gel or EMSA. (In general: Mobility shift assays separate free from complexed probe on a gel.)

Regarding “S. cerevisiae FAS α-chain, wildtype (FAS2-encoded polypeptide) (from UniProt P19097 1-1887)”, the binding result is “binds”. For “S. cerevisiae FAS α-chain, phosphopantetheinylation-deficient S180A (from UniProt P19097 1-1887)” the value was “binds”.
